The list is a part of this screen's results and no random one: it gathers some chemical classes. Not every dose and run of a compound is shown. T/C is the treated group as % of the vehicle group. For survival time, this PubChem deposit counts one and a half times the control or more as active, and values a quarter to a half above the control carry no call in these data; other NCI protocols may use other cut-offs. Schedule codes are those of the source, read here as Q, the interval in days (D) or hours (H), X, the number of doses. Some entries were tested several times; their values stand side by side, smallest first. Some entries show no survivor count and are marked so; the dose need not have been tolerated.
System: P388 leukemia ip, CD2F1 mice, survival T/C
Experiment: NCI In Vivo Anticancer Drug Screen. Data for tumor model P388 Leukemia (intraperitoneal) in CD2F1 (CDF1) mice
Settings: T/C endpoint: median survival time, higher T/C = longer survival
[1] = dose: 25.0 mg/kg/injection, schedule: Q01DX009 (ip), vehicle: saline with Tween-80
[2] = dose: 50.0 mg/kg/injection, schedule: Q01DX009 (ip), vehicle: saline with Tween-80
[3] = dose: 100.0 mg/kg/injection, schedule: Q01DX009 (ip), vehicle: saline with Tween-80

## ClCCN(CCCl)c1ccc(Oc2ccccc2)cc1
dose: 88.0 mg/kg/injection, schedule: Q01DX009 (ip), vehicle: other
  T/C: 150 % of control [survivor count not shown]
dose: 88.0 mg/kg/injection, schedule: Q04DX003 (ip), vehicle: other
  T/C: 91 % of control [survivor count not shown]
dose: 132.0 mg/kg/injection, schedule: Q01DX009 (ip), vehicle: other
  T/C: 145 % of control [survivor count not shown]
dose: 132.0 mg/kg/injection, schedule: Q04DX003 (ip), vehicle: other
  T/C: 91 % of control [survivor count not shown]
dose: 200.0 mg/kg/injection, schedule: Q01DX009 (ip), vehicle: other
  T/C: 154 % of control [survivor count not shown]
dose: 200.0 mg/kg/injection, schedule: Q04DX003 (ip), vehicle: other
  T/C: 150 % of control [survivor count not shown]
dose: 300.0 mg/kg/injection, schedule: Q01DX009 (ip), vehicle: other
  T/C: 190 % of control [survivor count not shown]
dose: 300.0 mg/kg/injection, schedule: Q04DX003 (ip), vehicle: other
  T/C: 129 % of control [survivor count not shown]

## BrCCN(CCBr)c1ccc2c(c1)Cc1ccccc1-2
dose: 0.66 mg/kg/injection, schedule: Q01DX009 (ip), vehicle: saline with Tween-80
  T/C: 104 % of control [survivor count not shown]
dose: 1.0 mg/kg/injection, schedule: Q01DX009 (ip), vehicle: saline with Tween-80
  T/C: 114 % of control [survivor count not shown]
dose: 1.5 mg/kg/injection, schedule: Q01DX009 (ip), vehicle: saline with Tween-80
  T/C: 102 % of control [survivor count not shown]
dose: 2.25 mg/kg/injection, schedule: Q01DX009 (ip), vehicle: saline with Tween-80
  T/C: 152 % of control [survivor count not shown]
dose: 3.0 mg/kg/injection, schedule: Q01DX009 (ip), vehicle: saline with Tween-80
  T/C: 151 % of control [survivor count not shown]
dose: 6.0 mg/kg/injection, schedule: Q01DX009 (ip), vehicle: saline with Tween-80
  T/C: 169 % of control [survivor count not shown]
dose: 12.0 mg/kg/injection, schedule: Q01DX009 (ip), vehicle: saline with Tween-80
  T/C: 168 [survivor count not shown] and 200 % of control [survivor count not shown]
dose: 16.5 mg/kg/injection, schedule: Q01DX009 (ip), vehicle: saline with Tween-80
  T/C: 190 % of control [survivor count not shown]
dose: 18.0 mg/kg/injection, schedule: Q01DX009 (ip), vehicle: saline with Tween-80
  T/C: 195 % of control [survivor count not shown]
dose: 24.0 mg/kg/injection, schedule: Q01DX009 (ip), vehicle: saline with Tween-80
  T/C: 153 % of control [survivor count not shown]
[1]
  T/C: 136 [survivor count not shown] and 230 % of control [survivor count not shown]
dose: 26.5 mg/kg/injection, schedule: Q01DX009 (ip), vehicle: saline with Tween-80
  T/C: 170 % of control [survivor count not shown]
dose: 37.5 mg/kg/injection, schedule: Q01DX009 (ip), vehicle: saline with Tween-80
  T/C: 135 % of control [survivor count not shown]
dose: 40.0 mg/kg/injection, schedule: Q01DX009 (ip), vehicle: saline with Tween-80
  T/C: 125 % of control [survivor count not shown]
dose: 48.0 mg/kg/injection, schedule: Q01DX009 (ip), vehicle: saline with Tween-80
  T/C: 102 % of control [survivor count not shown]
[2]
  T/C: 104 % of control [survivor count not shown]
dose: 60.0 mg/kg/injection, schedule: Q01DX009 (ip), vehicle: saline with Tween-80
  T/C: 120 % of control [survivor count not shown]
[3]
  T/C: 95 % of control [survivor count not shown]

## ClCCN(CCCl)C1Cc2ccccc2C1
dose: 0.79 mg/kg/injection, schedule: Q01DX009 (ip), vehicle: saline
  T/C: 93, 111, 137 % of control
dose: 1.56 mg/kg/injection, schedule: Q01DX009 (ip), vehicle: saline
  T/C: 103 and 153 % of control
dose: 3.12 mg/kg/injection, schedule: Q01DX009 (ip), vehicle: saline
  T/C: 95, 103, 150 % of control
dose: 6.25 mg/kg/injection, schedule: Q01DX009 (ip), vehicle: saline
  T/C: 96, 103, 117, 171 % of control

## O=C(CCl)Nc1ccc(N(CCCl)CCCl)cc1
dose: 6.25 mg/kg/injection, schedule: Q01DX009 (ip), vehicle: Klucel (hydroxypropylcellulose) (HPC)
  T/C: 146 [survivor count not shown] and 160 % of control [survivor count not shown]
dose: 12.5 mg/kg/injection, schedule: Q01DX009 (ip), vehicle: Klucel (hydroxypropylcellulose) (HPC)
  T/C: 161 [survivor count not shown] and 164 % of control [survivor count not shown]
dose: 25.0 mg/kg/injection, schedule: Q01DX009 (ip), vehicle: Klucel (hydroxypropylcellulose) (HPC)
  T/C: 162 [survivor count not shown] and 169 % of control [survivor count not shown]
dose: 50.0 mg/kg/injection, schedule: Q01DX009 (ip), vehicle: Klucel (hydroxypropylcellulose) (HPC)
  T/C: 108 [survivor count not shown] and 131 % of control [survivor count not shown]

## Cc1cc(N(CCCl)CCCl)ccc1C=O
[1]
  T/C: 89 [survivor count not shown] and 96 % of control [survivor count not shown]
[2]
  T/C: 114 [survivor count not shown], 125 [survivor count not shown], 127 % of control [survivor count not shown]
[3]
  T/C: 98 [survivor count not shown], 147 [survivor count not shown], 154 % of control [survivor count not shown]

## BrCCN(CCBr)CCCN(CCBr)CCBr
dose: 0.1 mg/kg/injection, schedule: Q01DX009 (ip), vehicle: saline
  T/C: 90 % of control [survivor count not shown]
dose: 13.0 micrograms/kg/injection, schedule: Q01DX009 (ip), vehicle: saline
  T/C: 191 % of control [survivor count not shown]
dose: 25.0 micrograms/kg/injection, schedule: Q01DX009 (ip), vehicle: saline
  T/C: 178 % of control [survivor count not shown]
dose: 50.0 micrograms/kg/injection, schedule: Q01DX009 (ip), vehicle: saline
  T/C: 143 % of control [survivor count not shown]
dose: 125.0 micrograms/kg/injection, schedule: Q04DX003 (ip), vehicle: saline with Tween-80
  T/C: 177 % of control [survivor count not shown]
dose: 165.0 micrograms/kg/injection, schedule: Q04DX003 (ip), vehicle: saline
  T/C: 150 % of control [survivor count not shown]
dose: 250.0 micrograms/kg/injection, schedule: Q04DX003 (ip), vehicle: saline with Tween-80
  T/C: 209 % of control [survivor count not shown]
dose: 250.0 micrograms/kg/injection, schedule: Q04DX003 (ip), vehicle: saline
  T/C: 145 % of control [survivor count not shown]
dose: 375.0 micrograms/kg/injection, schedule: Q04DX003 (ip), vehicle: saline
  T/C: 172 % of control [survivor count not shown]
dose: 500.0 micrograms/kg/injection, schedule: Q04DX003 (ip), vehicle: saline with Tween-80
  T/C: 90 % of control [survivor count not shown]
dose: 1000.0 micrograms/kg/injection, schedule: Q01DX009 (ip), vehicle: saline
  T/C: 127 % of control [survivor count not shown]
dose: 2000.0 micrograms/kg/injection, schedule: Q01DX009 (ip), vehicle: saline
  T/C: 145 % of control [survivor count not shown]
dose: 4000.0 micrograms/kg/injection, schedule: Q01DX009 (ip), vehicle: saline
  T/C: 148 % of control [survivor count not shown]
dose: 8000.0 micrograms/kg/injection, schedule: Q01DX009 (ip), vehicle: saline
  T/C: 120 % of control [survivor count not shown]

## CC(Cl)CN(CC(C)Cl)c1ccc2ccccc2c1 (centres undefined)
dose: 100.0 mg/kg/injection, schedule: Q01DX001 (ip), vehicle: Klucel (hydroxypropylcellulose) (HPC)
  T/C: 109 % of control [survivor count not shown]
dose: 200.0 mg/kg/injection, schedule: Q01DX001 (ip), vehicle: Klucel (hydroxypropylcellulose) (HPC)
  T/C: 103 % of control [survivor count not shown]
dose: 400.0 mg/kg/injection, schedule: Q01DX001 (ip), vehicle: Klucel (hydroxypropylcellulose) (HPC)
  T/C: 117 % of control [survivor count not shown]
